The shares of active, inactive and inconclusive entries below differ from those in the screen. Where the call is inconclusive, the potency comes from a doubtful curve fit. Calls of active or inactive are those of the source. Calls follow the shape of the dose curve; as a rule, active = well fitted antagonist curve with a large enough effect in the main read-out, with a control signal flat; inconclusive = small, poorly fitted or top-dose-only effect; inactive = no such curve, though single readings can be large or run the other way.
molecular target: Neuropeptide S receptor (Homo sapiens) (UniProt Q6W5P4); test: Confirmation Concentration-Response Assay for Antagonists of the Neuropeptide S Receptor: Calcium Signal Transduction, SAR for Probe; settings: CHO-NPSR cells, NPS-induced calcium fluorescence, FDSS; series mostly up to 19.3 µM; activity change, negative = inhibition: at the top concentration
Text: NIH Chemical Genomics Center [NCGC] NIH Molecular Libraries Probe Production centers Network [MLPCN] MLPCN Grant: X01-DA026210-01 Assay Submitter (PI): Heilig, Markus Alexander NCGC Assay Overview: Neuropeptide S receptor (NPSR), previously known as GPR154, is a recently de-orphanized G protein coupled receptor. Its endogenous ligand is the 20 amino acids peptide Neuropeptide S (NPS). […] NPS and its receptor are found in various tissues. Specifically they are highly expressed in brain areas that have been implicated in modulation of arousal, stress and anxiety. Central administration of NPS in mice produces an unusual profile of activity by inducing wakefulness and arousal, while at the same time suppressing anxiety. Therefore, NPSR may represent a novel drug target for the treatment of sleep and anxiety disorders. To identify NPSR antagonists, we developed a cell-based assay with transfected NPS receptor. NPS can stimulate the production of cAMP as well as release intracellular calcium in Chinese hamster ovary cells stably expressing NPS receptor. This change in intracellular calcium can be detected using a calcium indicator dye on a calcium imaging plate reader system (FDSS).
NCGC Assay Protocol Summary: A Chinese hamster ovary (CHO) cell line stably expressing the NPS receptor (CHO-NPSR) was obtained from Dr. Heilig lab at NIAAA and maintained in F-12 Kaighn's media (Invitrogen, Carlsbad, CA, 21127) supplemented with 10 % FBS, 100 units/ml penicillin, 100 ug/ml streptomycin and 250 ug/ml geneticin at 37C, 5% CO2 in a humidified atmosphere. Before the assay, aliquots of cells were frozen and stored at -135C. The assay was performed on a FDSS-7000 kinetic plate reader in 1536-well format. For both agonist (1-220s) and antagonist (221-400s) phases, the maximums of kinetic fluorescence responses were converted separately into text files using the instrument's software data export utility. Data for agonist response were normalized to the controls for basal activity (DMSO only) and 100% activation (NPS). […] AC50 values were determined from concentration-response data modeled with the standard Hill equation. NPS 1536-well FDSS assay protocol: (1) Frozen CHO-NPSR cells were thaw, washed once with fresh media and resuspended in F-12 Kaighn's media supplemented with 10 % FBS, 100 units/ml penicillin and 100 ug/ml streptomycin. Cells were plated at 3 ul/well (1200 cells) to black, clear-bottom, tissue-culture treated 1536-well plates, and then cultured at 37C, 5 % CO2 for 16 to 30 hours. (2) Add 3 ul of calcium dye (from High Performance PBX Calcium Assay Kit, BD Biosciences). The calcium dye was prepared according to the manufactory's instruction. (3) Incubation at 37C, 5 % CO2 for 60 to 120 min. (4) Load plates to FDSS-7000. The following steps were performed on FDSS-7000. (5) Record fluorescent background (Ex 480 nm, Em 520-560 nm) for 10 s. (6) Add 23 nl/well of compound in DMSO solution. The final titration for each compound was between 0.6 nM and 46 uM. Record agonist response for 210 s. (7) Add 2 ul of stimulation reagent (1X HBSS buffer, 0.1% BSA, 60 nM NPS). Record antagonist response for 140 s. Keywords: MLSMR, MLPCN, NIH Roadmap, qHTS, NCGC, NPS, Neuropeptide S Antagonists

Protein sequences, listed by entry. Tags and fused reporters are not part of them. Lines headed by an entry give the natural chain unless they say otherwise; changes in a name come on top.
UniProt Q6W5P4: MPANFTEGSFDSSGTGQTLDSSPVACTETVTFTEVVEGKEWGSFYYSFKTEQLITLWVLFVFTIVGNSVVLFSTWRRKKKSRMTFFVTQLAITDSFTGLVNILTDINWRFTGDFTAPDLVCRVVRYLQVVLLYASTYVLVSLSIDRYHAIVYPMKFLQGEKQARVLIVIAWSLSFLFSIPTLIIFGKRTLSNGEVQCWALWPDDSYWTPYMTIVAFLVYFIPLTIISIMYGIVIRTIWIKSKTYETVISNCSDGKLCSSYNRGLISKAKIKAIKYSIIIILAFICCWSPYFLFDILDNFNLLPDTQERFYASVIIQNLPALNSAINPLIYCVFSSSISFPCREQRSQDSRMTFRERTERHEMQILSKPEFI

Structure (SMILES) | Potency | activity change, negative = inhibition
COc1ccc(O)c(/C=N/Nc2nc(Nc3ccccc3)nc(-n3nc(C)cc3C)n2)c1 | inconclusive: 0.004 µM [antagonist, full curve, poor fit] | –
Cc1c(P(=S)(c2ccccc2)c2ccccc2)c2ccccc2n1C(=O)NCc1ccccc1 | inconclusive: 43.7 µM [antagonist, partial curve, poor fit] | –
Cc1c(P(=O)(c2ccccc2)c2ccccc2)c2ccccc2n1C | inconclusive: 34.7 µM [antagonist, single point] | –
N[C@@H](Cc1cc(I)c(Oc2ccc(O)c(I)c2)c(I)c1)C(=O)O | inconclusive: 0.794 µM [antagonist, full curve, poor fit] | –
CC(=O)c1c(C(C)=O)c(C)n(NC(=O)c2cccnc2)c1C | inconclusive: 0.355 µM [antagonist, full curve, poor fit] | –
Cc1csc(Sc2ccc([N+](=O)[O-])cc2C(=O)OCC(=O)NC2CCCC(C)C2C)n1 (stereo not given) | inconclusive: 1.12 µM [antagonist, partial curve] | –
COc1ccc(/C=N/NC(=S)SC)cc1OC | inconclusive: 0.001 µM [antagonist, full curve, poor fit] | –
COC(=O)c1ccc(C(=O)OC)c(NC(=O)CSc2cccc[n+]2[O-])c1 | – | inactive: 17.1%
COc1cccc(C2c3c(ncn(-c4ccc(C(C)(C)C)cc4)c3=N)Oc3ccc4ccccc4c32)c1 (stereo not given) | active: 5.52 µM | –
NC(=O)c1ccsc1NC(=O)c1ccc(S(=O)(=O)N2CCCC2)cc1 | inconclusive: 11.2 µM [antagonist, single point] | –
O=C(N/N=C/c1ccc([N+](=O)[O-])o1)c1ccc(O)cc1 | inconclusive: 3.55 µM [antagonist, partial curve, poor fit] | –
O=C(NCc1ccccc1)n1cc(P(=S)(c2ccccc2)c2ccccc2)c2ccccc21 | inconclusive: 69.3 µM [antagonist, single point] | –
CC(=O)c1sc(C(C)(C)C)cc1NC(=O)c1ccccc1C(=O)O | inconclusive: 0.199 µM [antagonist, full curve, poor fit] | –
CC(C)Cc1nc(N2CCN(C(=O)c3ccccc3)CC2)c(C#N)c2c1CCC2 | – | inactive: 16%
O=C(/C=C/c1ccco1)NC(=S)Nc1ccc(O)c(-c2nc3ccccc3s2)c1 | inconclusive: 0.316 µM [antagonist, full curve, poor fit] | –
CC1(C)Cc2c(c(N3CCOCC3)nc3sc4c(NCC5CCCO5)nnnc4c23)CS1 (stereo not given) | – | inactive: -40.4%
CC1C(c2ccccc2)N(C)C(c2ccccc2)CC1(O)c1ccccc1 (stereo not given) | inconclusive: 0.0282 µM [antagonist, full curve, poor fit] | –
COc1cccc(C2c3c(ncn(Cc4cccs4)c3=N)Oc3ccc4ccccc4c32)c1 (stereo not given) | active: 3.48 µM | –
O=C(Nc1cc(=O)[nH]c2nc(-c3ccc(Cl)cc3)nn12)c1ccccc1 | inconclusive: 0.355 µM [antagonist, partial curve, poor fit] | –
Cc1cccnc1Nc1nc(-c2ccccn2)cs1 | inconclusive: 0.0045 µM [antagonist, full curve, poor fit] | –

Entries above that contain two or more sulfur atoms (5):
Structure (SMILES) | Potency | activity change, negative = inhibition
Cc1csc(Sc2ccc([N+](=O)[O-])cc2C(=O)OCC(=O)NC2CCCC(C)C2C)n1 (stereo not given) | inconclusive: 1.12 µM [antagonist, partial curve] | –
COc1ccc(/C=N/NC(=S)SC)cc1OC | inconclusive: 0.001 µM [antagonist, full curve, poor fit] | –
NC(=O)c1ccsc1NC(=O)c1ccc(S(=O)(=O)N2CCCC2)cc1 | inconclusive: 11.2 µM [antagonist, single point] | –
O=C(/C=C/c1ccco1)NC(=S)Nc1ccc(O)c(-c2nc3ccccc3s2)c1 | inconclusive: 0.316 µM [antagonist, full curve, poor fit] | –
CC1(C)Cc2c(c(N3CCOCC3)nc3sc4c(NCC5CCCO5)nnnc4c23)CS1 (stereo not given) | – | inactive: -40.4%

Further entries

Structure (SMILES) | Potency | activity change, negative = inhibition
CC1(C)O[C@@H]2C[C@H]3[C@@H]4C[C@H](F)C5=CC(=O)CC[C@]5(C)[C@H]4[C@@H](O)C[C@]3(C)[C@]2(C(=O)CO)O1 | – | inactive: 34.2%
COc1cccc(C2c3c(ncn(-c4ccc(F)cc4)c3=N)Oc3ccc4ccccc4c32)c1 (stereo not given) | active: 3.48 µM | –
CC(C)(C)C1C/C(=C/c2ccccn2)C(=O)/C(=C/c2ccccn2)C1 (stereo not given) | inconclusive: 0.0141 µM [antagonist, full curve, poor fit] | –
CCSc1nc2c(c(=O)n1Cc1ccccc1)SC(C)C2 (stereo not given) | – | inactive: -2.84%
COc1ccc(C2c3c(n(CCc4ccccc4)cnc3=N)Oc3ccc4ccccc4c32)cc1OC (stereo not given) | – | inactive: -50.4% [at 50.9 µM]
O=C(Nc1ccc(Oc2c(F)c(F)c(F)c(F)c2F)cc1)OC1CCN2Cc3ccccc3N=C12 (stereo not given) | inconclusive: 2 µM [antagonist, single point] | –
COc1ccc(/C=N/n2cncn2)cc1Cn1cc([N+](=O)[O-])cn1 | inconclusive: 0.501 µM [antagonist, full curve] | –
Cc1cc(N/N=C/c2ccccc2[N+](=O)[O-])nc(-n2nc(C)cc2C)n1 | inconclusive: 2.24 µM [antagonist, full curve] | –
COc1cccc(C2c3c(ncn(-c4ccccn4)c3=N)Oc3ccc4ccccc4c32)c1 (stereo not given) | active: 5.52 µM | –
COc1cc(/C=C2\COC/C(=C\c3cc(OC)c(OC)c(OC)c3)C2=O)cc(OC)c1OC | inconclusive: 7.94 µM [antagonist, partial curve, poor fit] | –
COC(=O)/C(=C1/Oc2cc(C)oc(=O)c2S1)C(F)(F)F | inconclusive: 0.0224 µM [antagonist, full curve, poor fit] | –
COc1cccc(C2c3c(ncn(-c4ccccc4C#N)c3=N)Oc3ccc4ccccc4c32)c1 (stereo not given) | active: 4.38 µM | –
COc1ccc(CCNC(=O)CC(c2ccccc2)c2cccc(C)c2O)cc1OC (stereo not given) | inconclusive: 0.0001 µM [antagonist] | –
COc1cccc(C2c3c(ncn(-c4ccc(-c5ccccc5)cc4)c3=N)Oc3ccc4ccccc4c32)c1 (stereo not given) | – | inactive: -6.38% [at 50.9 µM]
Cc1nn(C)cc1/C=N/NC(=S)Nc1ccccc1 | – | inactive: 3.91%
CN(C)C(=S)N=Nc1[nH]c2ccccc2c1O | – | inactive: 15.4%
O=[N+]([O-])c1ccc(-c2nc(C(Cl)Cl)c3ccccc3n2)cc1 | – | inactive: -23.4%
C=C1C(=O)C=C2CN(C(=O)c3ccccc3)[C@@](Cc3ccc(F)cc3)(C(=O)OC)[C@@H]12 | inconclusive: 1.12 µM [antagonist, full curve, poor fit] | –
COc1cccc(C2c3c(ncn(-c4ccc(C)cc4)c3=N)Oc3ccc4ccccc4c32)c1 (stereo not given) | active: 3.48 µM | –
CCC(C)n1c(=O)c(C(=O)Nc2ccccc2S(N)(=O)=O)c(O)c2ccccc21 (stereo not given) | – | inactive: -2.76%
